What all share (test): log2 fold change, soluble protein after heating vs DMSO (PISA); higher = thermal stabilisation; K562 cells, 10 uM, 30 min; active = over 0.2 and 3.5 SD of the protein, either way, in both replicates (recomputed)
Compound in one test: CON(C)C(=O)N1N=C(c2cc(F)ccc2F)S[C@@]1(CCCN)c1ccccc1 [filanesib]
The method, boiled down:
(§1)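 Quantification of soluble protein used TMTpro 16plex LC-MS/MS, with channel sums equalised. Samples were the supernatant after 21,000xg for 90 min of pooled aliquots from K562 cells (2×10^6 cells/mL) treated with 10 μM compound for 30 min, heated for 3 min over 48°C-58°C, and extracted in PBS with 0.5% NP-40 at 4°C. Values, from duplicates, describe thermal stability against control samples on a log2 fold-change scale.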

The chains behind the UniProt entries cited, without tags or fusion partners. Where a name states a change or a piece, a line headed by the entry shows the natural chain unless it says otherwise.
UniProt P18850: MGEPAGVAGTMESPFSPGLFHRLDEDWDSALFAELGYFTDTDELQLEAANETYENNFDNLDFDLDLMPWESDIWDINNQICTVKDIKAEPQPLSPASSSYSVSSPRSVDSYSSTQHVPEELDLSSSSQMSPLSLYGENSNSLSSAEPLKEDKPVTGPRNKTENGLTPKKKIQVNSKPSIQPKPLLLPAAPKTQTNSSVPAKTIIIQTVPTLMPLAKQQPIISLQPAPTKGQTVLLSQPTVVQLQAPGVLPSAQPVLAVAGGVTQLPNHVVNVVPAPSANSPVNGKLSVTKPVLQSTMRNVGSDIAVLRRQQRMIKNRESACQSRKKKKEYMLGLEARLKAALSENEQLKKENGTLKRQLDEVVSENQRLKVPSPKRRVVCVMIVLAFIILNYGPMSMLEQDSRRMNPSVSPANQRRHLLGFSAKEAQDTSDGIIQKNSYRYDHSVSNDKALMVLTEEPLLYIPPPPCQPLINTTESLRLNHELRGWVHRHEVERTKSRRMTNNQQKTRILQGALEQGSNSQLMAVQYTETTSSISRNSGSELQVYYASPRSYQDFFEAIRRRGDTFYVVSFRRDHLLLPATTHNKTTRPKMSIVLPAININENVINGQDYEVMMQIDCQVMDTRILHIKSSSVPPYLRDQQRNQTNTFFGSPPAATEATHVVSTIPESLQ
UniProt Q96KC2: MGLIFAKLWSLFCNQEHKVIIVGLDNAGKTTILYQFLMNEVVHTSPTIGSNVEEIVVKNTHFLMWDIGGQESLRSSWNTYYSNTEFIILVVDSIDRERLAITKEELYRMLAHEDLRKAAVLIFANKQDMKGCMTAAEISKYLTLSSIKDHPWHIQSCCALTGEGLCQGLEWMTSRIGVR
UniProt Q9NWL6: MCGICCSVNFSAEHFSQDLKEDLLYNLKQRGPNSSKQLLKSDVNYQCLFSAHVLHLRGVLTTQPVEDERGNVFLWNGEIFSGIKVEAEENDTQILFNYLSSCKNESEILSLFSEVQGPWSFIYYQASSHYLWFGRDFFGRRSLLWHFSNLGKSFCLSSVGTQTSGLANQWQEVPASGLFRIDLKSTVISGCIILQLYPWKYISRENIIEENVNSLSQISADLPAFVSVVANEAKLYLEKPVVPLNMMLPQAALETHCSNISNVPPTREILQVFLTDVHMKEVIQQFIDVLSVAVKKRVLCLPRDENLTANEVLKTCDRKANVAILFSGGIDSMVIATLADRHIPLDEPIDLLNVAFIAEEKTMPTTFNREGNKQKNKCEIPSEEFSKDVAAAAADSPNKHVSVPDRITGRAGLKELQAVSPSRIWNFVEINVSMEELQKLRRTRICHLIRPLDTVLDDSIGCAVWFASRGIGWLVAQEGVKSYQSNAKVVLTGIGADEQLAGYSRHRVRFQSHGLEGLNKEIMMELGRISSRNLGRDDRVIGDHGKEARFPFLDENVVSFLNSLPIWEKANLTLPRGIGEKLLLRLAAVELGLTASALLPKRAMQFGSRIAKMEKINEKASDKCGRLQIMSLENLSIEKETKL
UniProt Q8N5I2: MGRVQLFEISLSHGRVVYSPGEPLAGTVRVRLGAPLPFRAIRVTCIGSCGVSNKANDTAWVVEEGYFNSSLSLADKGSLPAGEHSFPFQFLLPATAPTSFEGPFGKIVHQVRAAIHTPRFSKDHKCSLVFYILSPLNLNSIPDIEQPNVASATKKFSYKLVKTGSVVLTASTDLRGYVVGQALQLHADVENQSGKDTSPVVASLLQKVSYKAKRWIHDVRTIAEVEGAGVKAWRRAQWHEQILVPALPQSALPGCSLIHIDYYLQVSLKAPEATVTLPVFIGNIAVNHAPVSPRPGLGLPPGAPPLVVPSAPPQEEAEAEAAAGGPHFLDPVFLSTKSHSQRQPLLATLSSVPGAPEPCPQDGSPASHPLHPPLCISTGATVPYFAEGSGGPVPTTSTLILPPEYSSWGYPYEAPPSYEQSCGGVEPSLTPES
UniProt P17544: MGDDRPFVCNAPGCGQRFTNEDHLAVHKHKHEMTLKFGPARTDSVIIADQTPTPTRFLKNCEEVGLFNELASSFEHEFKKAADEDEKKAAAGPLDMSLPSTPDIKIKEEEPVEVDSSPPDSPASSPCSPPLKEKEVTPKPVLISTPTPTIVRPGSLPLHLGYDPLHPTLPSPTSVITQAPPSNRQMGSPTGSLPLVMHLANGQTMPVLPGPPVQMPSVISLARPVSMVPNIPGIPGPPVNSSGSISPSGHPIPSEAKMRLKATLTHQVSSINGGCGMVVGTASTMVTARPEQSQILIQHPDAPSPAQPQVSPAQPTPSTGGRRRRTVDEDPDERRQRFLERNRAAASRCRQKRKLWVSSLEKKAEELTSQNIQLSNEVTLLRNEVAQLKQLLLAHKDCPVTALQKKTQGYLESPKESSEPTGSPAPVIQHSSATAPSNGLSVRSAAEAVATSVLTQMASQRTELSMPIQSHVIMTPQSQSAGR
UniProt Q76L83: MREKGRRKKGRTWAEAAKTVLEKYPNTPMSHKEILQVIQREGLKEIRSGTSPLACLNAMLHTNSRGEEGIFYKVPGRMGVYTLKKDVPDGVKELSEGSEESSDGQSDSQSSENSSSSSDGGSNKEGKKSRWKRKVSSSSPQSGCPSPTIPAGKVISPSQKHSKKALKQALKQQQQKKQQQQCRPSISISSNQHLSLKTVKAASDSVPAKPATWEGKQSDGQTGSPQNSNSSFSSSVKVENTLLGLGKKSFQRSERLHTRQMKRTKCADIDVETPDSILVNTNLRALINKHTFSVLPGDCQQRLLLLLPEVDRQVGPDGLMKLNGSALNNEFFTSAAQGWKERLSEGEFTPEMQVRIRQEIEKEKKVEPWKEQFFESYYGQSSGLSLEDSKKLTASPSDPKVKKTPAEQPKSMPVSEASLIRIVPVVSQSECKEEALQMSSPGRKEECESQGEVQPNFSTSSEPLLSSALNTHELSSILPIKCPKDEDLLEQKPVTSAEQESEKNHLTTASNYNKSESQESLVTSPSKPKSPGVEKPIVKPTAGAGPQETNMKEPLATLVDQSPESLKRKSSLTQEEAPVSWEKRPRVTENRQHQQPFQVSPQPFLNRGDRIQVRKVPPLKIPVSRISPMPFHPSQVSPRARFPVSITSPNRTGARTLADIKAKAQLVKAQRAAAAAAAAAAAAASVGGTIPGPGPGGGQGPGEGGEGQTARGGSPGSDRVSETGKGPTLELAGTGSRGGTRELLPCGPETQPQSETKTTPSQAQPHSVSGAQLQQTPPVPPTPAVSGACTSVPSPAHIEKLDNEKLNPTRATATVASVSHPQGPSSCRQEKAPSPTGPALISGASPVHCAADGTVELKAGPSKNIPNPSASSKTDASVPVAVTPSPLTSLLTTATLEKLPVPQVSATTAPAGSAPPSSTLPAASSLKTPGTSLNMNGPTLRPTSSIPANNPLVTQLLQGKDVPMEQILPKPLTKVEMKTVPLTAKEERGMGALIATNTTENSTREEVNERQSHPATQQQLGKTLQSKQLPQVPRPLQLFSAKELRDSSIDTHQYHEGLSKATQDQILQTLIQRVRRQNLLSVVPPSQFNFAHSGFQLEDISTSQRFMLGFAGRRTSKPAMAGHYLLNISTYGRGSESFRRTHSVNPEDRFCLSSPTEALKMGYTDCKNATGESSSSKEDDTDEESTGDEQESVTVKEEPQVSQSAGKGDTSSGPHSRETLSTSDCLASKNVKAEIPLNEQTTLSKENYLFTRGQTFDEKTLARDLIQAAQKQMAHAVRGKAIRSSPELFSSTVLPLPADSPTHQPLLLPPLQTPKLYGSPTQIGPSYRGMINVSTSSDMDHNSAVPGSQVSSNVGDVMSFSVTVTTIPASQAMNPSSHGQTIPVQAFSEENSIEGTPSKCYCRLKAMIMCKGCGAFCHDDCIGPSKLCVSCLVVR
UniProt P49407: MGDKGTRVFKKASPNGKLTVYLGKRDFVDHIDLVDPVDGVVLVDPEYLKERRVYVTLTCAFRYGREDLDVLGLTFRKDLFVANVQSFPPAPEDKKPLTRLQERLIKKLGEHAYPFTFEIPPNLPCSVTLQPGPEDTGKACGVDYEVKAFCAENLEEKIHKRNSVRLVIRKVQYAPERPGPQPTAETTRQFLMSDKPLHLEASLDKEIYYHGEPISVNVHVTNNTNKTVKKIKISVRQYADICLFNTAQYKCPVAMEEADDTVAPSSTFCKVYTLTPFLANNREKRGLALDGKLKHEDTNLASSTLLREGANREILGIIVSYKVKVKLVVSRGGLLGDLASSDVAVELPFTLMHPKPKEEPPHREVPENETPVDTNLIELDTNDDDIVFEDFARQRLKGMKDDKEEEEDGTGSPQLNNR
UniProt P18846: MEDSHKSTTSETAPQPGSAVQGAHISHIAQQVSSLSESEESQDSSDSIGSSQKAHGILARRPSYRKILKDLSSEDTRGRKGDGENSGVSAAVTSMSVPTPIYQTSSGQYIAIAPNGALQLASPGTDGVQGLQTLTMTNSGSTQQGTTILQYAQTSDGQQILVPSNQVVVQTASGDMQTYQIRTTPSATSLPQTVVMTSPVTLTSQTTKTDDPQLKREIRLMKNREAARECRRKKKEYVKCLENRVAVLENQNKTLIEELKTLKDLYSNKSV
UniProt P18847: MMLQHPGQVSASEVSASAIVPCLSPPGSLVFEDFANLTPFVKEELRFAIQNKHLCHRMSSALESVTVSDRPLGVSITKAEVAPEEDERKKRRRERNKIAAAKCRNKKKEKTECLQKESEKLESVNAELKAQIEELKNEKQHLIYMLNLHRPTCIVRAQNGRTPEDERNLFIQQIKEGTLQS
UniProt Q6ZNE5, whole entry, looked up: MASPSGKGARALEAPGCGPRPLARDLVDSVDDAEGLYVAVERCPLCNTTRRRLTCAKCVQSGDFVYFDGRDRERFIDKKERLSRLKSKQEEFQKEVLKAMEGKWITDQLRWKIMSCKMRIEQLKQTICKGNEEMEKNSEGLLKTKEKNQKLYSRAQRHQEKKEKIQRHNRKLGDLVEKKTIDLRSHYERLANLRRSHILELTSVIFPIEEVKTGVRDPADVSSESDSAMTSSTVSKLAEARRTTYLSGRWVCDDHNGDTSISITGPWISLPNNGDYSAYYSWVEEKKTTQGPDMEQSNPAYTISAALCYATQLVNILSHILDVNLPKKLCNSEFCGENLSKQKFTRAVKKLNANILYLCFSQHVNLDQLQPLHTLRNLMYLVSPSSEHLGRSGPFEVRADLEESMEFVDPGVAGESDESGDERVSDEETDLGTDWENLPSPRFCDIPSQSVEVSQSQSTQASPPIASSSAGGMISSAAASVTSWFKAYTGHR
UniProt Q8IUR7, whole entry, looked up: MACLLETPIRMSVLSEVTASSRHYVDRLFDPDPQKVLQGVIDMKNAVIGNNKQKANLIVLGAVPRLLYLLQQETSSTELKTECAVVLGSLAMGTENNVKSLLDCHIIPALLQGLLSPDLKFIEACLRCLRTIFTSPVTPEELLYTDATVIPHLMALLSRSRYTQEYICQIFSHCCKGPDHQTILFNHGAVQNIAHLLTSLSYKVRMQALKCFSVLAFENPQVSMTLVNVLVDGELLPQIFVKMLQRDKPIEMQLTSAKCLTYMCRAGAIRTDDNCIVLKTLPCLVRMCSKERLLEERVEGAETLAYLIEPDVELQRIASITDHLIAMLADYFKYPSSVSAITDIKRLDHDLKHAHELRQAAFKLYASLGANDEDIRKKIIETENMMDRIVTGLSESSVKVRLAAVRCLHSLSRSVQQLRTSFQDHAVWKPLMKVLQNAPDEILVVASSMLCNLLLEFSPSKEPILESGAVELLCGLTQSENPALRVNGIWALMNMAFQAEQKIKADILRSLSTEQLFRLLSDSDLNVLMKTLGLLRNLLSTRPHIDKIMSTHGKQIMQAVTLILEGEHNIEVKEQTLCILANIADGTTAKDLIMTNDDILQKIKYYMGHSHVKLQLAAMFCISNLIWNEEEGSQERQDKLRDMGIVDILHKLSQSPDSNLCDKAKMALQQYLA
UniProt P40617: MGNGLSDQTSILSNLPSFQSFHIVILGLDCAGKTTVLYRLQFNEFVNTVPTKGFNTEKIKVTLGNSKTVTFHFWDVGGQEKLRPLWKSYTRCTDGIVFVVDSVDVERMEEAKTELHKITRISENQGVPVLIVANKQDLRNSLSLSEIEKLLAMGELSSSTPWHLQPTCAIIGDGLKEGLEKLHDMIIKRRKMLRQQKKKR
UniProt Q9NWX5: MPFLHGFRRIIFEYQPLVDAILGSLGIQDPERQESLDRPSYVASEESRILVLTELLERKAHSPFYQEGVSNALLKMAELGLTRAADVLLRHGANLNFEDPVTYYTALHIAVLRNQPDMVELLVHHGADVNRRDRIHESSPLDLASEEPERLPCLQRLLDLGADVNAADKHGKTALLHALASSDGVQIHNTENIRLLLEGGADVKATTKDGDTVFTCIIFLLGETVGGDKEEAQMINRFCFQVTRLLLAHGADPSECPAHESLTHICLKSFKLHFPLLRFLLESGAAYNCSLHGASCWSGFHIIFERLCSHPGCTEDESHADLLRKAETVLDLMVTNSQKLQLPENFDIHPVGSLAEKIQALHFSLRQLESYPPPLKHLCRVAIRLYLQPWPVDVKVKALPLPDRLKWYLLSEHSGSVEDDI

Compound in test [1]: CS(=O)(=O)c1ccc(-c2cnc(N)c(C(=O)Nc3ccccc3)n2)cc1
In a few lines: as §1

Compound in a further test: Cc1ccc(C(=O)N(CCCN)[C@@H](c2nc3cc(Cl)ccc3c(=O)n2Cc2ccccc2)C(C)C)cc1 [ispinesib]
In a few lines:
as §1

Compound in the next test: CO[C@H]1C[C@@H]2CC[C@@H](C)[C@@](O)(O2)C(=O)C(=O)N2CCCC[C@H]2C(=O)O[C@H]([C@H](C)C[C@@H]2CC[C@H](n3cnnn3)[C@H](OC)C2)CC(=O)[C@H](C)/C=C(\C)[C@@H](O)[C@@H](OC)C(=O)[C@H](C)C[C@H](C)/C=C/C=C/C=C/1C [zotarolimus]
The method, boiled down: as §1

Compound in another test: COc1cc(C(=O)O)ccc1NC(=O)[C@@H]1N[C@@H](CC(C)(C)C)[C@](C#N)(c2ccc(Cl)cc2F)[C@H]1c1cccc(Cl)c1F [idasanutlin]
The method, boiled down: as §1

Compound in a further test: COc1cc(Nc2ncc3c(n2)-c2ccc(Cl)cc2C(c2c(F)cccc2OC)=NC3)ccc1C(=O)O [alisertib]
In a few lines:
as §1

Compound in test [2]: COc1cc2nc(-c3cc(F)ccc3O)nc(N[C@@H]3CNC[C@H]3C(C)(C)O)c2cc1OC
In a few lines: as §1

Compound in a further test: COc1cc2ncnc(Nc3ccc(F)c(Cl)c3)c2cc1OCCCN1CCOCC1 [gefitinib]
The method, boiled down: as §1

Compound in test [3]: COc1cccc2cc(-c3nc([C@H]4CC[C@H](C(=O)O)CC4)n4ncnc(N)c34)[nH]c12
The method, boiled down: as §1

Compound in a further test: CS(=O)(=O)CCNCc1ccc(-c2ccc3ncnc(Nc4ccc(OCc5cccc(F)c5)c(Cl)c4)c3c2)o1 [lapatinib]
The method, boiled down: as §1

Compound in a further test: CS(=O)(=O)N1CCN(Cc2cc3nc(-c4cccc5[nH]ncc45)nc(N4CCOCC4)c3s2)CC1 [pictilisib]
In a few lines:
as §1

Compound in test [4]: C[C@@H]1COCCN1C2=NC(=NC(=C2)C3(CC3)S(=O)(=O)C)C4=C5C=CNC5=CC=C4
In a few lines: as §1

Compound in test [5]: C[C@H](C1=CC=C(C=C1)C(=O)NC2=C3C=CNC3=NC=C2)N
The method, boiled down:
as §1

Compound in a further test: C[C@H](Nc1ncnc2nc[nH]c12)c1cc2cccc(Cl)c2c(=O)n1-c1ccccc1 [duvelisib]
The method, boiled down:
as §1

Compound in the next test: Cc1cc(Nc2cc(CN3CCOCC3)c3nc(C)c(Cc4ccc(Cl)cc4F)n3n2)n[nH]1 [gandotinib]
In a few lines:
as §1

Compound in a further test: Cc1cc(Nc2cc(N3CCN(C)CC3)nc(Sc3ccc(NC(=O)C4CC4)cc3)n2)n[nH]1 [tozasertib]
In a few lines:
as §1

Compound in test [6]: Cc1cc(SCc2sc(-c3ccc(C(F)(F)F)cc3)nc2C)ccc1OCC(=O)O
The method, boiled down:
as §1

Compound in test [7]: COC1=CC=C(C=C1)CN2C=CC3=C2C=C(C=C3)C(=O)NO
The method, boiled down: as §1

Compound in the next test: C[C@@H](Oc1cc(-c2cnn(C3CCNCC3)c2)cnc1N)c1c(Cl)ccc(F)c1Cl [crizotinib]
The method, boiled down: as §1

Compound in another test: Cc1ccc(-n2nc(C(C)(C)C)cc2NC(=O)Nc2ccc(OCCN3CCOCC3)c3ccccc23)cc1 [doramapimod]
In a few lines:
as §1

Some of the results follow.

ATF6 (UniProt P18850): the log2 fold change was inactive: 0.006 with filanesib, inactive: -0.062 in test [1] and inactive: -0.447 in the test with ispinesib.

Take ARL5B (UniProt Q96KC2): the log2 fold change with filanesib is inactive: -0.053; with zotarolimus, inactive: -0.087; in the test with idasanutlin it was inactive: -0.222; with alisertib it was inactive: -0.006; in test [2], inactive: 0.106; with gefitinib, inactive: 0.142. Moreover, the log2 fold change was inactive: 0.089 in test [3]; inactive: -0.048 with lapatinib; inactive: -0.012 with pictilisib; inactive: -0.029 in [1]; inactive: 0.057 in test [4]; inactive: -0.002 in [5]. Besides, the log2 fold change with duvelisib was inactive: 0.124; in the test with gandotinib, inactive: -0.22; with tozasertib, inactive: -0.021; in test [6] it was inactive: 0.141.

For the target ASNSD1 (UniProt Q9NWL6), the log2 fold change was inactive: 0.048 in [7]; inactive: -0.065 with filanesib; inactive: 0.11 with gefitinib; inactive: 0.195 in test [1]; inactive: 0.018 with crizotinib; inactive: 0.107 in test [4]. Further, the log2 fold change in the test with doramapimod is inactive: 0.05.

As to ARRDC1 (UniProt Q8N5I2), the log2 fold change with filanesib is inactive: 0.013; with zotarolimus, inactive: 0.182; in the test with alisertib, inactive: 0.152; in test [2], inactive: -0.098; in the test with gefitinib, inactive: -0.009; in test [3] it was inactive: 0. Moreover, the log2 fold change was inactive: 0.01 with lapatinib; inactive: -0.092 with pictilisib; inactive: 0.015 in test [1]; inactive: -0.097 in test [4]; inactive: 0.205 in [5]; inactive: 0.1 with gandotinib. For the same target, the log2 fold change is inactive: -0.071 in test [6] and inactive: -0.082 with ispinesib.

For ATF7 isoform 6 (UniProt P17544), the log2 fold change in test [7] was inactive: 0.04; with filanesib it was inactive: 0.417; in the test with zotarolimus, inactive: 0.03; with idasanutlin, inactive: 0.084; with alisertib it was inactive: -0.007; in test [2] it was inactive: -0.004. Besides, the log2 fold change with gefitinib is inactive: 0.09; in [3], inactive: 0.09; in the test with lapatinib it was inactive: 0.121; in test [1], inactive: -0.131; with crizotinib, inactive: 0.061; in test [4], inactive: 0.02. The log2 fold change in test [5] is inactive: -0.088; in test [6], inactive: -0.054; with doramapimod it was inactive: 0.158; with ispinesib, inactive: 0.223.

As to ASXL2 (UniProt Q76L83), the log2 fold change with idasanutlin was inactive: -0.043; with duvelisib it was inactive: -0.107; in [6], inactive: -0.098.

Regarding ARRB1 isoform 2 (UniProt P49407), the log2 fold change in [7] is inactive: 0.087; with zotarolimus, inactive: 0; with idasanutlin, inactive: -0.112; in the test with alisertib, inactive: 0.022; in test [2], inactive: 0.074; in test [3], inactive: 0.09. The log2 fold change with lapatinib was inactive: 0.033; in the test with pictilisib, inactive: 0.03; with crizotinib, inactive: 0.035; in test [5] it was inactive: 0.013; in the test with duvelisib, inactive: -0.055; in the test with gandotinib, inactive: -0.016. The log2 fold change with tozasertib is inactive: -0.099; in [6] it was inactive: 0.016; with doramapimod, inactive: -0.023; in the test with ispinesib it was inactive: 0.062.

Take ATF1 (UniProt P18846): the log2 fold change with filanesib is inactive: 0.097; with zotarolimus it was active: -0.51; in the test with idasanutlin, inactive: -0.082; with alisertib, inactive: -0.101; in test [2], inactive: -0.071; in the test with gefitinib, inactive: 0.052. For the same target, the log2 fold change in test [3] is inactive: 0.006; with lapatinib, inactive: -0.011; in the test with pictilisib, inactive: -0.039; in [1], inactive: -0.004; in test [4] it was inactive: 0.017; in test [5], inactive: 0.073. Moreover, in the test with gandotinib, the log2 fold change was inactive: 0.067.

For the target ATE1 (UniProt O95260), the log2 fold change is inactive: -0.109 in test [7]; inactive: -0.05 with zotarolimus; inactive: 0.078 in the test with idasanutlin; inactive: -0.013 in [2]; inactive: 0.034 with lapatinib; inactive: 0.149 with crizotinib. The log2 fold change in test [4] is inactive: 0.017; in test [5], inactive: -0.152; with duvelisib it was inactive: -0.023; with tozasertib, inactive: -0.292; in [6], inactive: -0.049; with doramapimod it was inactive: 0.089.

On to ATF3 (UniProt P18847), for which the log2 fold change with filanesib was inactive: 0.531; with zotarolimus it was inactive: -0.22; with idasanutlin, inactive: 0.115; in test [2], inactive: -0.035; with gefitinib, inactive: -0.025; in the test with lapatinib it was inactive: 0.099. Also, the log2 fold change is inactive: 0.128 in test [1]; inactive: -0.094 in test [4]; inactive: -0.126 in [5]; inactive: 0.036 with duvelisib; inactive: -0.04 with tozasertib; inactive: -0.076 in test [6]. For the same target, in the test with ispinesib, the log2 fold change is inactive: -0.124.

As to ATG14 (UniProt Q6ZNE5), the log2 fold change with filanesib was inactive: 0.03; with idasanutlin it was inactive: -0.014; in test [2], inactive: 0.286; with lapatinib, inactive: -0.084; in [1], inactive: 0.193.

Consider ARMC8 isoform 6 (UniProt Q8IUR7), for which the log2 fold change with idasanutlin and with gefitinib was inactive: 0.072 throughout.

Take ARL4A (UniProt P40617): the log2 fold change in the test with idasanutlin was inactive: 0.056; in the test with alisertib, inactive: 0.042; in [3], inactive: 0.094.

Take ASB6 (UniProt Q9NWX5): the log2 fold change in test [7] was inactive: 0.298; in the test with filanesib, inactive: 0.008; with idasanutlin, inactive: -0.029; with alisertib it was inactive: -0.214; in [2], inactive: -0.083; with gefitinib, inactive: -0.034. In addition, the log2 fold change in [3] was inactive: 0; with lapatinib it was inactive: -0.055; with pictilisib, inactive: 0.157; in test [1] it was inactive: 0.019; with crizotinib, inactive: 0.013; in test [4] it was inactive: -0.025. Further, the log2 fold change with gandotinib is inactive: 0.109; with doramapimod it was inactive: 0.037; in the test with ispinesib it was inactive: -0.143.
